# Experimental data reported in PMC7212925.
# Protein sequences, listed by entry. Tags and fused reporters are not part of them. Residues count along the entry.
# UniProt P30530, residues 26-894: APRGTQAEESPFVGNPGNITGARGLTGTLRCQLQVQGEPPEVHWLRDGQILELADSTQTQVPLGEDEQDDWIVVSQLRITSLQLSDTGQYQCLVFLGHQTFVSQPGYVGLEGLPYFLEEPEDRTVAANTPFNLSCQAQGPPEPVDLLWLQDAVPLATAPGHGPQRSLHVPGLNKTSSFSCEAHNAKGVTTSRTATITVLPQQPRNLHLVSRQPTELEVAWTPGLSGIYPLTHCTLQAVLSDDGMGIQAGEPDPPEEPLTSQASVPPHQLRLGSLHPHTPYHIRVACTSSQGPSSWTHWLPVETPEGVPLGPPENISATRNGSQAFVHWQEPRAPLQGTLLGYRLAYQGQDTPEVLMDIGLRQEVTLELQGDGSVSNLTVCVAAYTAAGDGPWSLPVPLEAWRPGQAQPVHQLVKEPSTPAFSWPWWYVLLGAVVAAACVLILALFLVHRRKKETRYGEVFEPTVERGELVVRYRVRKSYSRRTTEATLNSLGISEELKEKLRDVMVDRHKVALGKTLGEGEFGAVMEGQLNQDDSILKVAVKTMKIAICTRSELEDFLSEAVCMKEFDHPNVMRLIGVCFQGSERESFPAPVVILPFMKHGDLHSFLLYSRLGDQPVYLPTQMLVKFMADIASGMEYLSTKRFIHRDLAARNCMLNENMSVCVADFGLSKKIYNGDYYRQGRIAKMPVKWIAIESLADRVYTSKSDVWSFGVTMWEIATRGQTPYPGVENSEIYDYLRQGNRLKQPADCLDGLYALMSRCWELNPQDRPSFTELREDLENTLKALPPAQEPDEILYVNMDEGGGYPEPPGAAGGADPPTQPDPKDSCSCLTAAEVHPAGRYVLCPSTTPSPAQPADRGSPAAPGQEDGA
# Results are given in words; binding and its absence hold for the method and conditions named. In cells and extracts the contact can be indirect. Some results given as binding are weak or reduced against the parent protein; the word gives no strength. For some of these results: Sequences can lack the tags named with a protein.
# B1: soluble LRIG1 expressed in the U87-EGFRvIII-sLRIG1 cell line (domain or fragment, UniProt Q96JA1 35-779)
# chain: AGPRAPCAAACTCAGDSLDCGGRGLAALPGDLPSWTRSLNLSYNKLSEIDPAGFEDLPNLQEVYLNNNELTAVPSLGAASSHVVSLFLQHNKIRSVEGSQLKAYLSLEVLDLSLNNITEVRNTCFPHGPPIKELNLAGNRIGTLELGAFDGLSRSLLTLRLSKNRITQLPVRAFKLPRLTQLDLNRNRIRLIEGLTFQGLNSLEVLKLQRNNISKLTDGAFWGLSKMHVLHLEYNSLVEVNSGSLYGLTALHQLHLSNNSIARIHRKGWSFCQKLHELVLSFNNLTRLDEESLAELSSLSVLRLSHNSISHIAEGAFKGLRSLRVLDLDHNEISGTIEDTSGAFSGLDSLSKLTLFGNKIKSVAKRAFSGLEGLEHLNLGGNAIRSVQFDAFVKMKNLKELHISSDSFLCDCQLKWLPPWLIGRMLQAFVTATCAHPESLKGQSIFSVPPESFVCDDFLKPQIITQPETTMAMVGKDIRFTCSAASSSSSPMTFAWKKDNEVLTNADMENFVHVHAQDGEVMEYTTILHLRQVTFGHEGRYQCVITNHFGSTYSHKARLTVNVLPSFTKTPHDITIRTTTMARLECAATGHPNPQIAWQKDGGTDFPAARERRMHVMPDDDVFFITDVKIDDAGVYSCTAQNSAGSISANATLTVLETPSLVVPLEDRVVSVGETVALQCKATGNPPPRITWFKGDRPLSLTERHHLTPDNQLLVVQNVVAEDAGRYTCEMSNTLGTERAHSQLS
# B2: LRIG1 C-terminally fused to LgBiT or SmBiT (NanoBiT construct) (protein, UniProt Q96JA1 35-1093)
# chain: AGPRAPCAAACTCAGDSLDCGGRGLAALPGDLPSWTRSLNLSYNKLSEIDPAGFEDLPNLQEVYLNNNELTAVPSLGAASSHVVSLFLQHNKIRSVEGSQLKAYLSLEVLDLSLNNITEVRNTCFPHGPPIKELNLAGNRIGTLELGAFDGLSRSLLTLRLSKNRITQLPVRAFKLPRLTQLDLNRNRIRLIEGLTFQGLNSLEVLKLQRNNISKLTDGAFWGLSKMHVLHLEYNSLVEVNSGSLYGLTALHQLHLSNNSIARIHRKGWSFCQKLHELVLSFNNLTRLDEESLAELSSLSVLRLSHNSISHIAEGAFKGLRSLRVLDLDHNEISGTIEDTSGAFSGLDSLSKLTLFGNKIKSVAKRAFSGLEGLEHLNLGGNAIRSVQFDAFVKMKNLKELHISSDSFLCDCQLKWLPPWLIGRMLQAFVTATCAHPESLKGQSIFSVPPESFVCDDFLKPQIITQPETTMAMVGKDIRFTCSAASSSSSPMTFAWKKDNEVLTNADMENFVHVHAQDGEVMEYTTILHLRQVTFGHEGRYQCVITNHFGSTYSHKARLTVNVLPSFTKTPHDITIRTTTMARLECAATGHPNPQIAWQKDGGTDFPAARERRMHVMPDDDVFFITDVKIDDAGVYSCTAQNSAGSISANATLTVLETPSLVVPLEDRVVSVGETVALQCKATGNPPPRITWFKGDRPLSLTERHHLTPDNQLLVVQNVVAEDAGRYTCEMSNTLGTERAHSQLSVLPAAGCRKDGTTVGIFTIAVVSSIVLTSLVWVCIIYQTRKKSEEYSVTNTDETVVPPDVPSYLSSQGTLSDRQETVVRTEGGPQANGHIESNGVCPRDASHFPEPDTHSVACRQPKLCAGSAYHKEPWKAMEKAEGTPGPHKMEHGGRVVCSDCNTEVDCYSRGQAFHPQPVSRDSAQPSAPNGPEPGGSDQEHSPHHQCSRTAAGSCPECQGSLYPSNHDRMLTAVKKKPMASLDGKGDSSWTLARLYHPDSTELQPASSLTSGSPERAEAQYLLVSNGHLPKACDASPESTPLTGQLPGKQRVPLLLAPKS
# B3: untagged full-length LRIG1 (pIRES competitor) (protein, UniProt Q96JA1 35-1093)
# chain: B2 chain
# B4: untagged soluble LRIG1 (pIRES competitor) (domain or fragment, UniProt Q96JA1 35-779)
# chain: B1 chain
# Columns and labels:
# [1] = biological target: AXL, endogenous in U87-EGFRvIII-derived cells (human (endogenous in U87-EGFRvIII)) (UniProt P30530); test: proximity ligation; in situ PLA (DuoLink) with primary antibodies to AXL and LRIG1 on U87-EGFRvIII cells and on cells expressing sLRIG1; interaction foci counted
# [2] = biological target: AXL C-terminally fused to LgBiT or SmBiT (NanoBiT construct) (human) (UniProt P30530); test: split reporter; NanoBiT complementation in live U87 cells, 48 h after transfection; partners C-terminally fused to LgBiT or SmBiT; no ligand; area under the curve of luminescence
# [3] = biological target: AXL C-terminally fused to LgBiT or SmBiT (NanoBiT construct) (human) (UniProt P30530); test: split reporter; NanoBiT competition in live U87 cells: LgBiT- and SmBiT-tagged AXL or EGFR with untagged competitors co-transfected from pIRES plasmids in excess (2X to 18X); ligand-induced dimerization signal read
binding [3],other results,Binder
,binding [1]: binds,B1
,binding [2]: binds,B2
binds,,B3
binds,,B4
